Measurements from PubChem BioAssay AID504594 (Broad Institute, 2011).
The whole screen tested about 2,000 compounds, of which fewer than 10 were called active.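 Rule for the calls: active = growth inhibition of at least 75% in every replicate, which also brings the mean inhibition to 75% or more; inconclusive = mean inhibition 75% or more but some replicate under 75%; inactive = the rest.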 The list shows a part of the results.

Experiment: growth inhibition of PfHsp90-dependent yeast, primary screen, antimalarial PfHsp90 inhibitor project, S. cerevisiae, BacTiter-Glo luminescence (AID 504594);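 note: 0% = DMSO neutral control wells and 100% = 20 µM radicicol control wells; higher value means stronger growth inhibition because the sign is flipped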
Conditions: S. cerevisiae expressing PfHsp90, BacTiter-Glo growth, 48 h; at 9.4 µM; active compounds read high

Structure (SMILES)	growth inhibition
COc1ccc(/C=C\C(=O)c2c(O)ccc3c(C)cc(=O)oc23)cc1OC	inactive: -6.45%
CCOC(=O)c1oc2cc(OCC(N)=O)ccc2c(=O)c1-c1ccc(OC)c(OC)c1	inactive: 5.11%
S=C(NCCOCCOCCNC(=S)Nc1ccccc1)Nc1ccccc1	inactive: -14.7%
Cc1nc2ccccc2n1CC(O)Cn1c2ccccc2c2ccccc21 (configuration not stated)	inactive: -4.83%
CCC1(c2ccccc2)NC(=S)N(c2ccc(C)c(C)c2)N1 (configuration not stated)	inactive: -7.44%
O=C(O)CCCCCN=C1CCc2ccccc2N1	inactive: 0.535%
Cc1ccc2c(CN3CCN(Cc4ccc5c(c4)OCO5)CC3)cc(=O)oc2c1C	inactive: 0.516%
COC(=O)C1=NN(C(=O)c2cccc(Br)c2)C(O)(c2ccc(Cl)cc2)C1 (configuration not stated)	inactive: -22.7%
CC(=O)OCC1OC(n2ccc(=O)[nH]c2=O)C(O)C1O (configuration not stated)	inactive: 0.902%
CC(NCCc1ccc(O)cc1)C(O)c1ccc(O)cc1 (configuration not stated)	inactive: 2.32%
COc1cccc(CC(=O)NCC2COc3ccccc3O2)c1OC (configuration not stated)	inactive: 12.9%
O=[N+]([O-])c1ccc(O)c2ncccc12	active: 93.7%
Cc1ccc(/C=N/NC(=O)C2(C)CC2(Br)Br)cc1 (configuration not stated)	inactive: -0.881%
COc1ccc(C2OC[C@H]3O[C@H](O)[C@H](NC(C)=O)[C@@H](O)[C@@H]3O2)cc1 (some centres not stated)	inactive: -5.81%
N=c1nc(N2CCCCC2)cc(N)n1O	inactive: 12.2%
CC(=O)Oc1ccc(C(c2ccc(OC(C)=O)cc2)c2ccccn2)cc1	inactive: -5.45%
O=C(O)CCC(=O)c1ccc(-c2ccccc2)cc1	inactive: -5.52%
O=C1c2cccc3cccc(c23)C(=O)N1c1ccccn1	inactive: -0.513%
COc1ccc(/C=C/C(=O)c2cc3cccc(OC)c3oc2=O)cc1	inactive: -3.13%
CCN(CC)Cc1c[nH]c2c(C(=O)OC)cccc12	inactive: -2.96%
CN1CCN2c3ccccc3Cc3ccccc3C2C1 (configuration not stated)	inactive: 4.08%
O=C(O)c1cnccn1	inactive: -2.57%
COc1ccc(-c2[nH]ncc2CN(C)C(C)c2ccon2)c(OC)c1 (configuration not stated)	inactive: -11.3%
C=CCc1ccc(OCC(O)COc2ccc(CC=C)cc2OC)c(OC)c1	inactive: -20%
Cc1ncoc1C(=O)N1CCCC(C(=O)c2ccc(-c3ccccc3)c(F)c2)C1 (configuration not stated)	inactive: -23%

Structure (SMILES)	growth inhibition
CCSC(=O)CCCCCCCCCCCO	inactive: 2.01%
CCOc1ccc(C(=O)NC(C)C2COc3ccccc3O2)cc1 (configuration not stated)	inactive: 6.54%
C[C@H](CCC(=O)O)[C@H]1CC[C@H]2[C@@H]3C(=O)C[C@@H]4CC(=O)CC[C@]4(C)[C@H]3CC(=O)[C@]12C	inactive: 8.97%
Cc1nc2sccn2c(=O)c1CCN1CCC(=C(c2ccc(F)cc2)c2ccc(F)cc2)CC1	inactive: 3.73%
Cc1ccc2[nH]c3c(c2c1)CCNC3=O	inactive: -8.37%
CC1(C)CC(=O)C2=C(C1)c1c(ccc3ccccc13)NC2c1ccco1 (configuration not stated)	inactive: -5.44%
N=c1ccn(CC(=O)NC(N)=O)c2ccccc12	inactive: -0.411%
OC(CCN1CCCCC1)(c1ccccc1)c1ccccc1	inactive: 6.58%
CC(=O)[C@H]1[C@H](C#N)C[C@H]2[C@@H]3CC=C4C[C@@H](O)CC[C@]4(C)[C@H]3CC[C@@]21C	inactive: -7.44%
COc1ccc(C(CC(=O)N2CCOCC2)C(C)C)cc1 (configuration not stated)	inactive: 0.0597%
COc1c2occc2c(OC)c2c(=O)cc(C(F)(F)C(F)(F)F)oc12	inactive: -5.37%
CCOc1ccc2[nH]c3c(=O)n(CCc4ccc(OC)cc4)cnc3c2c1	inactive: -11.5%
COc1ccc2[nH]cc(C3N4CC5(C)CN3CC(C)(C4)C5=O)c2c1 (configuration not stated)	inactive: 3.6%
Cc1ccccc1C(=O)NNc1ncnc2c1cnn2C	inactive: 6.23%
CC(C)NNC(=O)c1ccncc1	inactive: -0.426%
CC(=O)N(CCC1(C(C)C)CCOC(C)(C)C1)Cc1ccco1 (configuration not stated)	inactive: 8.32%
CC(=O)N=c1sc(S(N)(=O)=O)nn1C	inactive: -2.22%
Cc1cc(C)c(NC(=O)NC(=O)C(Cl)(Cl)Cl)c(C)c1	inactive: 2.99%
COc1ccc(NC(=O)C2OC3OC(C)(C)OC3C3OC(C)(C)OC23)cc1 (configuration not stated)	inactive: 2.54%
O=c1c2ccccc2nc2n1CCCN2	inactive: 6.84%
CC(=O)Oc1ccc(C(=O)O)cc1OC(C)=O	inactive: -3.21%
CCOC(=O)C1=C(C)N[C@@]2(O)c3ccccc3C(=O)[C@@]12O	inactive: -0.766%
Cn1cc(CN2CCC(C(=O)N3CCCCC3)CC2)c(-c2ccccc2F)n1	inactive: 9.47%
CCOc1ccc(CC2CCC(=O)NC2=O)cc1 (configuration not stated)	inactive: 16.2%
O=C(COc1cc(O)c2c(=O)c3ccccc3oc2c1)OCc1ccccc1	inactive: 4.36%

Reformatted in markdown: entries from further up

| Structure (SMILES) | growth inhibition |
| --- | --- |
| CCOc1ccc2[nH]c3c(=O)n(CCc4ccc(OC)cc4)cnc3c2c1 | inactive: -11.5% |
| COc1ccc2[nH]cc(C3N4CC5(C)CN3CC(C)(C4)C5=O)c2c1 (configuration not stated) | inactive: 3.6% |
| Cc1ccccc1C(=O)NNc1ncnc2c1cnn2C | inactive: 6.23% |
| CC(C)NNC(=O)c1ccncc1 | inactive: -0.426% |
| CC(=O)N(CCC1(C(C)C)CCOC(C)(C)C1)Cc1ccco1 (configuration not stated) | inactive: 8.32% |
| CC(=O)N=c1sc(S(N)(=O)=O)nn1C | inactive: -2.22% |

(more compounds)

Structure (SMILES)	growth inhibition
Cc1ccc(C2=NOC(=O)/C2=C\C=C\c2ccccc2)cc1	inactive: 14.3%
CC(C)(C)OC(=O)COc1cc(OCC(=O)OC(C)(C)C)c2c(=O)cc(-c3ccccc3)oc2c1	inactive: -8.59%
CC(C)=CCCC1=CCC2C(=O)NNC(=O)C2C1 (configuration not stated)	inactive: -3.66%
COc1ccc(C(=O)Nc2nc3ccccc3c(=O)[nH]2)cc1	inactive: 11.1%
Cc1nc2c(c3c1[nH]c1ccccc13)C(=O)CC(C)(C)C2	inactive: -21.2%
CN(C)c1cc(NC(=O)CN2CCOCC2)c2ccccc2n1	inactive: -17.6%
CC(C)c1cc(=O)oc2c3c4c(cc12)CCCN4CCC3	inactive: 7.18%
CSCC[C@H](NC(=O)OC(C)(C)C)C(=O)N1CCC(C(=O)N[C@@H](C)C(=O)O)CC1	inactive: -11.6%
COc1cc2c(cc1O)CCN(C(=O)c1ccco1)C2C (configuration not stated)	inactive: 3.62%
COc1ccc(/C=C2\CC/C(=C\c3ccc(OC)c(OC)c3)C2=O)cc1OC	inactive: -15.8%
CCC(C)NCCOc1ccccc1C (configuration not stated)	inactive: -2.12%
NNC(=O)c1ccncc1	inactive: 10.4%
COc1cc(NC(=S)NC(=O)c2cccs2)ccc1NC(=O)C(C)C	inactive: 0.319%
COc1ccccc1OS(=O)(=O)c1ccc(NC(C)=O)cc1	inactive: -3.86%
CC12CCC(C(=O)N3CCCCC3)([C@H](Br)C1=O)C2(C)C (some centres not stated)	inactive: -1.37%
COc1ccc(C2C3C(C)=NN=C3CC(C)(O)C2C(C)=O)cc1 (configuration not stated)	inactive: -3.73%
COc1cccc(OCc2nnc(-c3cccs3)o2)c1	inactive: -11.4%
CC12CCC(C(=O)NCc3ccc4c(c3)OCO4)(CC1=O)C2(C)C (configuration not stated)	inactive: 11.3%
CC(=O)Nc1ccc(CN2CCN(C3CCCCC3)C(CCO)C2)cc1 (configuration not stated)	inactive: 3.54%
CC1(C)O[C@@H]2C[C@H]3[C@@H]4C[C@H](F)C5=CC(=O)CC[C@]5(C)[C@H]4[C@@H](O)C[C@]3(C)[C@]2(C(=O)CO)O1	inactive: 8.56%
COCCCN1C(=O)/C(=C\c2cccs2)C(C(=O)OC)=C1C	inactive: -4.85%
CN1C(=O)NC(c2ccc(O)cc2)C2=C1CN(c1cccc3ccccc13)C2=O (configuration not stated)	inactive: 11.9%
Cc1ccccc1N1C(N)=NC(N)=NC1(C)C	inactive: -2.95%
CCCCc1oc2ccccc2c1C(=O)c1cc(I)c(OCCN(CC)CC)c(I)c1	inactive: -7.73%
O=C(O)c1cccnc1	inactive: 18.4%

Structure (SMILES)	growth inhibition
Cc1cccc(N(C)C(=S)Oc2ccc3ccccc3c2)c1	inactive: 5.35%
COc1ccc(C(=O)Nc2ccccc2C(=O)NC(Cc2c[nH]c3ccccc23)C(=O)O)cc1 (configuration not stated)	inactive: 1.89%
O=C(O)c1cc2cc(F)ccc2[nH]1	inactive: 4.76%
Cc1nonc1CN(C)C(=O)c1ccc(OC2CCN(C(=O)c3cccnc3)CC2)cc1	inactive: -8.83%
NCCc1ccc(O)c(O)c1	inactive: -13.7%
CC(=O)c1cn(C)c(=O)[nH]c1=O	inactive: 10.3%
CC1=CC2(O)OCCN(CCO)C2=CC1=O (configuration not stated)	inactive: -3.33%
COc1cccc(N2CC34C=CC(O3)C(C(=O)O)C4C2=O)c1 (configuration not stated)	inactive: -1.36%
C[C@H](CS)C(=O)N1CCC[C@H]1C(=O)O	inactive: -1.46%
COc1ccc(/C=C(/C#N)c2cccnc2)cc1OC	inactive: -3.57%
Cc1c(CCOC(=O)CC23CC4CC(CC(C)(C4)C2)C3)sc[n+]1Cc1ccc([N+](=O)[O-])cc1	inactive: 5.74%
CC(=O)OCC(=O)[C@@]1(O)CC[C@H]2[C@@H]3CCC4=CC(=O)C=C[C@]4(C)[C@H]3[C@@H](O)C[C@@]21C	inactive: 1.99%
COC(=O)c1ccc(NC(=O)c2ccccc2SC)cc1	inactive: -6.84%
C[C@]12CC[C@@H]3c4ccc(O)cc4C(=O)C[C@H]3[C@@H]1CC[C@@H]2O	inactive: -8.64%
CC(=O)C1=C(O)C(=O)OC1c1ccc(C)cc1 (configuration not stated)	inactive: 14.7%
COc1ccc(OC)c(C(=O)c2coc3ccc(O)cc23)c1	inactive: -5.76%
NS(=O)(=O)c1cc2c(cc1Cl)NC(C1C[C@H]3C=C[C@@H]1C3)NS2(=O)=O (some centres not stated)	inactive: 8.58%
C[C@H](NC(=O)C1(c2ccccc2)CCN(C(=O)[C@H]2CSCN2C(=O)OC(C)(C)C)CC1)C(=O)O	inactive: -9.59%
COc1cc(CO)ccc1OCc1nnnn1-c1ccc(C)cc1	inactive: 0.995%
CCCCOc1ccc(C(=O)CCN2CCCCC2)cc1	inactive: -0.129%
OC(CCN1CCCC1)(c1ccccc1)C1CCCCC1 (configuration not stated)	inactive: 2.6%
COCCNC(=O)CSc1ccc(Cl)cc1	inactive: -5.34%
